Data as given in publication PMC4782060.
These are yes or no findings as the source states them, for the method shown.

The chains behind the UniProt entries cited, without tags or fusion partners. Residues count along the entry.
UniProt P08670, residues 99-249: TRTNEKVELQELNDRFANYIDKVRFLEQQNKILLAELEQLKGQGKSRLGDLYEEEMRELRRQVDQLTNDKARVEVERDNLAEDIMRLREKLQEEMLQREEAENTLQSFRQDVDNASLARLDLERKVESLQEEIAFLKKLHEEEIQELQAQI

Molecular target: vimentin^ROD construct, vimentin residues 99-249 (coils 1A and 1B of the central rod domain) (human) (UniProt P08670)
Assay: AUC; vimentin^ROD alone, in the presence of 150 mM NaCl; both purified

- binding: no binding
Substance: vimentin^ROD construct, vimentin residues 99-249 (coils 1A and 1B of the central rod domain) (from UniProt P08670 99-249) (domain or fragment)
